# From PubChem BioAssay AID504834 (National Center for Advancing Translational Sciences (NCATS), 2011)
# Several values for one entry are separate records, joined by “and”; a condition that tells them apart may be missing. Equal entries are not always repeated. In all, about 320,000 compounds went through this assay and about 22,000 (6.9%) were called active. Inconclusive results, whose numbers are uncertain, are shown with a selection of clear calls. Calls come from the whole dose curve; as a rule, active = well fitted inhibition curve with a large enough effect; inconclusive = small, poorly fitted or top-dose-only effect, or another doubt; inactive = no such curve, though single readings can be large or run the other way. Where the call is inconclusive, the potency comes from a doubtful curve fit.
# Assay: Primary qHTS for delayed death inhibitors of the malarial parasite plastid, 96 hour incubation
# Conditions: P. falciparum luciferase reporter growth; series mostly up to 28.7 µM
# Method in brief: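 Plates of compound plus infected erythrocytes (2% hematocrit, 0.05% parasitemia final) incubate 96 hours, 37 C, 5% CO2. Detection reagent added; reduced luminescence from the parasites' luciferase reporter flags inhibition.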
# Potency is the fitted concentration of half-maximal effect.
row,SMILES,Potency
1,O=C1/C(=C/c2ccsc2)N2CCC1CC2,"inconclusive: 6.57 µM [inhibitor, partial curve, poor fit]"
2,Fc1ccc(Cn2nnnc2C(c2cccs2)N2CCN(C3CCCCC3)CC2)cc1 (centres undefined),"inconclusive: 10.4 µM [inhibitor, partial curve]"
3,COc1cccc(NC(=O)Cc2nc(-c3ccccc3)sc2-c2ccc(C)cc2)c1,active: 10.4 µM
4,Cc1cc(C(=O)COC(=O)c2nccnc2N)c(C)n1C,inactive
5,CCCCNC(=O)COc1ccccc1[N+](=O)[O-],inactive
6,O=C(Nc1nnc(-c2ccco2)o1)c1ccc(N2C(=O)CCC2=O)cc1,"inconclusive: 18.5 µM [inhibitor, single point]"
7,CC(=O)/C(N=Nc1ccc2c(c1)OCO2)=C(\C)O,inactive
8,C/C(=N\NC(=O)c1cccc(S(=O)(=O)N2CCCCC2)c1)c1ccc(C)o1,"inconclusive: 13.1 µM [inhibitor, partial curve, poor fit]"
9,OCC1(CCOc2ccccc2)CCN(Cc2cn[nH]c2-c2ccc(F)cc2)CC1,"inconclusive: 13.1 µM [inhibitor, partial curve, poor fit]"
10,N#Cc1ccc(Nc2nc(-c3ccc(O)cc3O)cs2)cc1C(F)(F)F,"inconclusive: 18.5 µM [inhibitor, single point]"
11,CC1CCc2nn(CC(=O)N3CCN(C(=O)c4ccco4)CC3)cc2C1 (centres undefined),"inconclusive: 4.15 µM [inhibitor, single point]"
12,CCOc1ccc(S(=O)(=O)N2CCCC(C(=O)N3CCN(CC)CC3)C2)cc1Cl (centres undefined),inactive
13,CCOC(=O)C1(CCc2ccccc2)CCN(C(=O)CN2CCOC2=O)CC1,active: 1.65 µM
14,COc1ccc(NC(=S)N(CCc2ccc(OC)c(OC)c2)Cc2ccccn2)cc1,active: 11.7 µM
15,c1ccc2c(c1)CCN(C1CCCCC1)C2,"inconclusive: 18.5 µM [inhibitor, single point]"
16,C=CCn1c(C23CC4CC(CC(C4)C2)C3)n[nH]c1=S,"inconclusive: 8.28 µM [inhibitor, partial curve, poor fit]"
17,Cc1ccc(C(O)(C(=O)NNc2ccc3ccccc3n2)c2ccc(C)cc2)cc1,"inactive and inconclusive: 18.5 µM [inhibitor, single point]"
18,Cc1ccccc1CC1CCN(CCCNC(=O)Nc2ccccc2)CC1,inactive
19,CN(C(=O)c1ccc(NC(=O)Cc2cccc(NC(=O)C3CCN(C(=O)C4CCCC4)CC3)c2)cc1)C1CCCC1,"inconclusive: 8.28 µM [inhibitor, partial curve]"
20,COC(=O)c1cc2c(C(F)(F)F)nn(C)c2s1,inactive
21,Nn1cnc2c(c1=O)C1(CCCCC1)Cc1ccccc1-2,"inconclusive: 0.0657 µM [inhibitor, full curve]"
22,Cc1nn(Cc2ccccc2Cl)c2sc(C(=O)Nc3ccccc3N3CCOCC3)cc12,"inconclusive: 18.5 µM [inhibitor, single point]"

# 3 structures from above, sorted by molecular weight, ascending:
row,SMILES,Potency
20,COC(=O)c1cc2c(C(F)(F)F)nn(C)c2s1,inactive
11,CC1CCc2nn(CC(=O)N3CCN(C(=O)c4ccco4)CC3)cc2C1 (centres undefined),"inconclusive: 4.15 µM [inhibitor, single point]"
2,Fc1ccc(Cn2nnnc2C(c2cccs2)N2CCN(C3CCCCC3)CC2)cc1 (centres undefined),"inconclusive: 10.4 µM [inhibitor, partial curve]"

# Additional entries

row,SMILES,Potency
1,CN(C)CCCn1c(SCc2ccc(Cl)cc2)nnc1-c1ccncc1,active: 2.94 µM
2,COc1ccc(-c2nn(CCC#N)cc2C(=O)NCc2ccccc2)cc1OC,active: 11.7 µM
3,Cc1cccc(NC(=O)c2sc3nc(-c4ccccc4)cn3c2C)n1,"inconclusive: 11.7 µM [inhibitor, partial curve]"
4,CCOC(=O)c1ccc(NC(=O)CN2C(=O)CN(C(C)=O)C2=S)cc1,inactive
5,Cc1ccc(NC(=O)c2cc(S(=O)(=O)N3CCCCC3)c[nH]2)cc1C,"inconclusive: 8.28 µM [inhibitor, partial curve, poor fit]"
6,CC(=O)c1c(C)nc2ccc([N+](=O)[O-])cc2c1-c1ccccc1,"inconclusive: 10.4 µM [inhibitor, single point]"
7,C=CCC1(CC=C)CCCN1C(=O)CC1C(=O)NCCN1Cc1cc(OC)cc(OC)c1 (centres undefined),"inconclusive: 18.5 µM [inhibitor, partial curve, poor fit]"
8,CN(C)CC(C)(C)NS(=O)(=O)c1ccc(Cl)cc1,"inconclusive: 18.5 µM [inhibitor, single point]"
9,CSc1ncc(CN2CCCC(C(=O)c3cccc(Cl)c3)C2)cn1 (centres undefined),inactive
10,NC(=O)/C(=C\c1cccnc1)NC(=O)c1ccccc1,inactive
11,CSc1ccc(NC(=O)NCc2ccccc2)cc1,inactive
12,Clc1ccc(OC2CCN(Cc3nc(CC4CC4)no3)CC2)cc1,"inconclusive: 18.5 µM [inhibitor, single point]"
13,O=C(Nc1ccc(-c2nnn(CC(=O)N3CCN(C(=O)c4ccco4)CC3)n2)cc1)c1ccc(F)cc1,"inconclusive: 8.28 µM [inhibitor, partial curve, poor fit]"
14,C=CCN(c1ccccc1)S(=O)(=O)c1cccc(C(=O)Nc2cccc(C)n2)c1,"inconclusive: 18.5 µM [inhibitor, single point]"
15,Cn1cccc1C(=O)NCC(c1ccco1)N1CCCCC1 (centres undefined),"inconclusive: 18.5 µM [inhibitor, single point]"
16,Cc1cc(N/N=C/c2ccccc2Cl)nc(NCc2ccccc2)n1,"inconclusive: 0.828 µM [inhibitor, full curve, poor fit]"
17,CC(=O)N1c2ccc(S(=O)(=O)N3CCC(C(=O)Nc4ccc(C)cn4)CC3)cc2CC1C (centres undefined),"inconclusive: 10.4 µM [inhibitor, partial curve]"
18,COc1ccc(CN2CCC(C(N)=O)CC2)cc1OCc1ccccc1,"inconclusive: 8.28 µM [inhibitor, partial curve, poor fit]"
19,CCOc1ccccc1N1CCN(C(=O)NCc2ccc(Cl)cc2)CC1,inactive
20,CN(C)c1ccc(CNS(=O)(=O)c2ccc3c(c2)C(C)(C)C(=O)N3C)cc1,"inconclusive: 3.7 µM [inhibitor, single point]"
21,O=C(Nc1ccc2oc(-c3ccccc3F)nc2c1)c1ccc2c(c1)OCCO2,inactive
22,CC(NS(=O)(=O)/C=C/c1ccccc1)C(=O)NCCc1ccc(S(N)(=O)=O)cc1 (centres undefined),"inconclusive: 10.4 µM [inhibitor, partial curve, poor fit]"
